Reference: the supplement of paper PMC12823440, “Inhibitors supercharge kinase turnover through native proteolytic circuits” (Nature, 2025)
The list shows a part of the results. Hit calls seldom repeat between salt and free forms of one compound.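 Kinases were expressed as nanoluciferase fusions in K562 cells and luminescence was read every 4 h between 2 and 18 h as percent of control, DMSO set to 100% and a positive control to 0%. A time point counts as decreased when the signal drops significantly (2 sigma). The hit call is the authors' own, does not follow from the count of time points alone, and its rule is not shown.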

The chains behind the UniProt entries cited, without tags or fusion partners. Where a name states a change or a piece, a line headed by the entry shows the natural chain unless it says otherwise.
UniProt P21860, whole entry: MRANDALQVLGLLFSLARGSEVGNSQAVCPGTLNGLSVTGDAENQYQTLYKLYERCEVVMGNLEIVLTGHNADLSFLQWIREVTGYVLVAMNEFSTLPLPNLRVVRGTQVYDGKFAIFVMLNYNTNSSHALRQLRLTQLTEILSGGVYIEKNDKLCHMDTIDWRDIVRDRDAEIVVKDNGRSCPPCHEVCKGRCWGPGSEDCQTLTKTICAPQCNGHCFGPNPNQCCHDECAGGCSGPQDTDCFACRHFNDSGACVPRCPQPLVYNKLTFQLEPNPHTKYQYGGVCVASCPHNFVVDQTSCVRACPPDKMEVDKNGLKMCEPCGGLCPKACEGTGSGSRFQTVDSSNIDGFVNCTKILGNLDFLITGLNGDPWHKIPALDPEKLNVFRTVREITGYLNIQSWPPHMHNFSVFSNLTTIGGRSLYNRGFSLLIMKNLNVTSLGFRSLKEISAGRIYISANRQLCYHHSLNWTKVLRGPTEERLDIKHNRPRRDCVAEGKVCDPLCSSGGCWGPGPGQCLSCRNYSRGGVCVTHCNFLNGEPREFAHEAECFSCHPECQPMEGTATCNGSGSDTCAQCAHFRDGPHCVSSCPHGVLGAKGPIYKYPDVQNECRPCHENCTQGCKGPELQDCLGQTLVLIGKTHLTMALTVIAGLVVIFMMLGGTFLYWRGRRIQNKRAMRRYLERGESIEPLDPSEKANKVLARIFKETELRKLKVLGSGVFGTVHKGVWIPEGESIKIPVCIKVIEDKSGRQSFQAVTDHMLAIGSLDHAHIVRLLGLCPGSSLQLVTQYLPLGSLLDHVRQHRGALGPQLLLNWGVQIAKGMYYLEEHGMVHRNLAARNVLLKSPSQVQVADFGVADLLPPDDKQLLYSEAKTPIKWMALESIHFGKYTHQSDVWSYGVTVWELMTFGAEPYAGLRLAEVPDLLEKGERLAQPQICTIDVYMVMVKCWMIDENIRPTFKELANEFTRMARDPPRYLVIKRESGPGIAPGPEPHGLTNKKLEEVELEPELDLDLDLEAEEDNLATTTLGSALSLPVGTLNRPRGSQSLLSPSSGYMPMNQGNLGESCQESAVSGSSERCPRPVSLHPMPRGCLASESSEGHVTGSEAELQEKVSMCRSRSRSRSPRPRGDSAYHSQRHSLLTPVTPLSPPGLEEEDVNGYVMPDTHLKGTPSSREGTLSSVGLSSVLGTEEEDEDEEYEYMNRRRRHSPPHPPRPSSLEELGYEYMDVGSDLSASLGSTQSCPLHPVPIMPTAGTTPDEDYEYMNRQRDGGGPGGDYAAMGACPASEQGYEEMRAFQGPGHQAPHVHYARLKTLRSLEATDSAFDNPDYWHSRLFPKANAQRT
UniProt Q15303, whole entry R711C: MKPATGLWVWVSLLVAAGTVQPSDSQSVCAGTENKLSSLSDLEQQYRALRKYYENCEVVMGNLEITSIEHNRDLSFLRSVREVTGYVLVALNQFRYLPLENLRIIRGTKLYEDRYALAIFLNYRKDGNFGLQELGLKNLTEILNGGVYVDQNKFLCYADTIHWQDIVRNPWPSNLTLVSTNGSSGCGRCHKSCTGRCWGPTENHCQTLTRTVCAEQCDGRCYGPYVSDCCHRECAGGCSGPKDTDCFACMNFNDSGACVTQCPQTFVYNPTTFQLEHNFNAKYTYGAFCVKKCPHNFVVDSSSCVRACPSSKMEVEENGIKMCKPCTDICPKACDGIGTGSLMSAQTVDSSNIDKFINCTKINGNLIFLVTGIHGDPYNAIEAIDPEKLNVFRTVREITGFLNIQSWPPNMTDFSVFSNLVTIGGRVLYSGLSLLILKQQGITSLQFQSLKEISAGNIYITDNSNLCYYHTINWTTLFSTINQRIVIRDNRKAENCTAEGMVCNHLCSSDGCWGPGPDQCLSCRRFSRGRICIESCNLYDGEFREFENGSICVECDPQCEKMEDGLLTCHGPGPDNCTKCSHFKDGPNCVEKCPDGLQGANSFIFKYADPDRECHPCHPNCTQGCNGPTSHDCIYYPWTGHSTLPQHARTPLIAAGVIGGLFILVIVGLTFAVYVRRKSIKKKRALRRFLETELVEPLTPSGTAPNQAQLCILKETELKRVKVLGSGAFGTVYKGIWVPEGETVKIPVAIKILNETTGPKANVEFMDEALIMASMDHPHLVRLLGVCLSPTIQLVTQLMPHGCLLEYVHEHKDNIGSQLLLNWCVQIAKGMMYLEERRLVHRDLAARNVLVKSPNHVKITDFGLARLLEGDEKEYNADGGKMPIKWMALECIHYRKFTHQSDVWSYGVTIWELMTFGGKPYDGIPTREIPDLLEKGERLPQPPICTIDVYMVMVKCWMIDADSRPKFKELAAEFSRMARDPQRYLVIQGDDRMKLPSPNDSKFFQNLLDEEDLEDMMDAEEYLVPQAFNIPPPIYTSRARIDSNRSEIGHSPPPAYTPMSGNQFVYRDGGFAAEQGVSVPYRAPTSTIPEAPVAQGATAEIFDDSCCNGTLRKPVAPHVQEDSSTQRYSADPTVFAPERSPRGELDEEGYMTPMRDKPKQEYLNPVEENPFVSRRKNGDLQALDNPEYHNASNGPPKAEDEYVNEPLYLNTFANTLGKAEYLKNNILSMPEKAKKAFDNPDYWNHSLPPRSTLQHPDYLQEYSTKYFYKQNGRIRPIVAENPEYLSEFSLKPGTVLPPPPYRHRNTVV
UniProt O75460: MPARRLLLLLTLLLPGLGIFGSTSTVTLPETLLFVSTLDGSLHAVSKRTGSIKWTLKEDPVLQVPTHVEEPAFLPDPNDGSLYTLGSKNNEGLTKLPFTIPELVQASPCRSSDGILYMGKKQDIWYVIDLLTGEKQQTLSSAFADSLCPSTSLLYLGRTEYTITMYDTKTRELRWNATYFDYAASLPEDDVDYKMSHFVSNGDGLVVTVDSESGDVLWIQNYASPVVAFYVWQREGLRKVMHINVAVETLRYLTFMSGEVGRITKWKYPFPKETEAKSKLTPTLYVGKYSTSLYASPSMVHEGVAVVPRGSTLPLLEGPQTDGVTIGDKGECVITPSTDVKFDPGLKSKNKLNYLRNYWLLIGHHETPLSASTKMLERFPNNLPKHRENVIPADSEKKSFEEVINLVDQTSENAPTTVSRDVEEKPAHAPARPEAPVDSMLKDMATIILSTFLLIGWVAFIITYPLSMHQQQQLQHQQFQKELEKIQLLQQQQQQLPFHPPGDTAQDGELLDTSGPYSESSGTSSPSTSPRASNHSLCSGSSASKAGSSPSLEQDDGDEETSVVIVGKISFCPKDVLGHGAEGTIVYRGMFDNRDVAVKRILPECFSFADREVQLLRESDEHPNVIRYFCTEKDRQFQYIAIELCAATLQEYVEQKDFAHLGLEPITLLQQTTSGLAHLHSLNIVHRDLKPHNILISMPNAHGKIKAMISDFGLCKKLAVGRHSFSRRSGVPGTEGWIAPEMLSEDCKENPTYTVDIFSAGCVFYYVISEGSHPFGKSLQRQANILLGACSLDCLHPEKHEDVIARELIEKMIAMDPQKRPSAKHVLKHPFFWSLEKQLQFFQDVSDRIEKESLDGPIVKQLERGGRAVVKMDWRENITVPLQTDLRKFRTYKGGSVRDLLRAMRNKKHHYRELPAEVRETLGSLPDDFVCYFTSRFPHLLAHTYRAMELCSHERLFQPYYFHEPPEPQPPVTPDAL
UniProt P21802, whole entry, looked up: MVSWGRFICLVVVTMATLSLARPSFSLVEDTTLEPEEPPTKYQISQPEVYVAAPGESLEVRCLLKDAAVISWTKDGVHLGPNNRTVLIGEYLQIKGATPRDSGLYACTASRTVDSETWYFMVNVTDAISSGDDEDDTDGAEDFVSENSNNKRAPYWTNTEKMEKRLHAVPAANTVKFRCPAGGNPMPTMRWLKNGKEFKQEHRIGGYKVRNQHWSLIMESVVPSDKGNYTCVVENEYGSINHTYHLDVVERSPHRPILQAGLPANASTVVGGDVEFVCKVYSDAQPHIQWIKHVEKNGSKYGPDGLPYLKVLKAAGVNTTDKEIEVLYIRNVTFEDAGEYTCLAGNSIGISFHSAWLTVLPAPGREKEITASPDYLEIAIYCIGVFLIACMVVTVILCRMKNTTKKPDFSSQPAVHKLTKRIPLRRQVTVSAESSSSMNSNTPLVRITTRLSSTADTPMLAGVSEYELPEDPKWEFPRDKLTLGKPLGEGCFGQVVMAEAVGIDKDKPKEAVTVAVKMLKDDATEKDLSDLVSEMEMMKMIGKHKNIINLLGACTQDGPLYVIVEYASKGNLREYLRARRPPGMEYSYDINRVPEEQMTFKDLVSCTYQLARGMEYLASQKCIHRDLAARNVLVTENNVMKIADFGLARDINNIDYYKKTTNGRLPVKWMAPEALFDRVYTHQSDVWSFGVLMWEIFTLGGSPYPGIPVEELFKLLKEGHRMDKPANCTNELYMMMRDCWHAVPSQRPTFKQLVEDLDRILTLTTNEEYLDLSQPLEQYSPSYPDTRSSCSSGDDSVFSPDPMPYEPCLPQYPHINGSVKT
UniProt P22607, whole entry, looked up: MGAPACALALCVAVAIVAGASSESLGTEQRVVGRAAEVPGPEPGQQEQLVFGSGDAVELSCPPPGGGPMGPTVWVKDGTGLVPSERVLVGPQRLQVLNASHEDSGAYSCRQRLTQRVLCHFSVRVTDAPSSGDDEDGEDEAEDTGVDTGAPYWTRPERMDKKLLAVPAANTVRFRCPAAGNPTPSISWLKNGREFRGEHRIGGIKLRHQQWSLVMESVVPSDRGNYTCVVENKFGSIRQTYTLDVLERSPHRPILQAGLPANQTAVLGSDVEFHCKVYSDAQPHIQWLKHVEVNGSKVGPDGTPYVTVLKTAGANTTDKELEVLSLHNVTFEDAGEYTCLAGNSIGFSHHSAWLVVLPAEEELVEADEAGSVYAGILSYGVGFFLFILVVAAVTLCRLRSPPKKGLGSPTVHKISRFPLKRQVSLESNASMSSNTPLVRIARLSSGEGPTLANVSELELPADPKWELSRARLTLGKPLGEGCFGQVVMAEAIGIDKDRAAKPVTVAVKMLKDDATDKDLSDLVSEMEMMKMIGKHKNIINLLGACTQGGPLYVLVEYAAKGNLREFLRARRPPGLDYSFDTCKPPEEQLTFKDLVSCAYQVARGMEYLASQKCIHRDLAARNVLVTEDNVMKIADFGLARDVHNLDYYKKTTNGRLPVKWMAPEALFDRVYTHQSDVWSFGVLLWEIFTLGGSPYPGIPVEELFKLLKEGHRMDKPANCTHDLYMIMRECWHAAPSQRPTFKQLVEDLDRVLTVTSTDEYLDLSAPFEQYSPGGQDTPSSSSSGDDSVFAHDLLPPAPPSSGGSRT
UniProt P14616: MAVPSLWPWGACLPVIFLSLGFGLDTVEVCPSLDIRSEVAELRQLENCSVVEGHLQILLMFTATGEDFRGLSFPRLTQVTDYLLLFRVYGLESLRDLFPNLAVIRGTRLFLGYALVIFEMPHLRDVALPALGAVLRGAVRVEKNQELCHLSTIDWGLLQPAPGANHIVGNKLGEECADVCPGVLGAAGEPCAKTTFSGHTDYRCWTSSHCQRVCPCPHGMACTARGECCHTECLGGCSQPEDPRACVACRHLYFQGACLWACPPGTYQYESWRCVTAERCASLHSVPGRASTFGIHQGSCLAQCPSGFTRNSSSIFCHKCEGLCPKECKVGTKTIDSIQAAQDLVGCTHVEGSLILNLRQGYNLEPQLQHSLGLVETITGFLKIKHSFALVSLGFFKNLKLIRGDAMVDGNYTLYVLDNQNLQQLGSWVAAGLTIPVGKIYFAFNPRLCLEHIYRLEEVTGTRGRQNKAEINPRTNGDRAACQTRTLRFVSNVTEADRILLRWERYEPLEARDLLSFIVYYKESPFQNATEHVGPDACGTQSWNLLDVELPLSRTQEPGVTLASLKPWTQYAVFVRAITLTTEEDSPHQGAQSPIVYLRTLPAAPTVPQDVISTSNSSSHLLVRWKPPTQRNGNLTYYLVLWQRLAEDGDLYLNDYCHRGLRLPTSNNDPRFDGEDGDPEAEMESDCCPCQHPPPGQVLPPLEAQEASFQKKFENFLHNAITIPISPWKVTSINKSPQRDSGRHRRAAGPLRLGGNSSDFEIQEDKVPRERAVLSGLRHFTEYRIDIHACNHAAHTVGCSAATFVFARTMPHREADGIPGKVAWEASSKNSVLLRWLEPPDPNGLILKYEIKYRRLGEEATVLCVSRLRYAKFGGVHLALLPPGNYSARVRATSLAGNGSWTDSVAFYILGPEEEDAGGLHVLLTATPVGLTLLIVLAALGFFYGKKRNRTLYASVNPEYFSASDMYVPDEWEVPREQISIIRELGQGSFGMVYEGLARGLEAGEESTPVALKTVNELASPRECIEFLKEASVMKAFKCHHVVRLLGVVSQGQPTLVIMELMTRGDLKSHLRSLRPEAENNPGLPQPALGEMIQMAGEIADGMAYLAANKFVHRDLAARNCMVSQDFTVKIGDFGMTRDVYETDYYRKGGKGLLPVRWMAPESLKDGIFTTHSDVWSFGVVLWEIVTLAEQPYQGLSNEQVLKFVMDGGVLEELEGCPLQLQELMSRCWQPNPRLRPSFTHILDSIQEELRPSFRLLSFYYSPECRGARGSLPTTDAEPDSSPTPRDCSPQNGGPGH

What was measured:
Assay in all cases: kinase-Nluc reporter destabilization hit call (1 = scored as downregulated) (binary); higher = compound decreases kinase abundance
Conditions in all cases: K562; 2-18 h
[1] = target: EGFR (UniProt P00533)
[2] = target: EGFR_G719S (UniProt P00533)
[3] = target: EGFR_G719S_T790M (UniProt P00533)
[4] = target: EGFR_L718V (UniProt P00533)
[5] = target: EGFR_L858R (UniProt P00533)
[6] = target: EGFR_L861Q (UniProt P00533)
[7] = target: EGFR_T790M (UniProt P00533)
[8] = target: EPHA2 (UniProt P29317)
[9] = target: ERBB3 (UniProt P21860)
[10] = target: ERBB4_R711C (clone: ERBB4_mut) (UniProt Q15303)
[11] = target: ERN1 (UniProt O75460)
[12] = target: FGFR1 (UniProt P11362)
[13] = target: FGFR2 (UniProt P21802)
[14] = target: FGFR3 (UniProt P22607)
[15] = target: FGR (UniProt P09769)
[16] = target: FLT3 (UniProt P36888)
[17] = target: FYN (UniProt P06241)
[18] = target: GSK3A (UniProt P49840)
[19] = target: HER2 (UniProt P04626)
[20] = target: INSRR (UniProt P14616)

Measured: kinase-Nluc reporter destabilization hit call

COCCO[C@@H]1[C@H](O)[C@@H](CO)O[C@H]1n1cnc2c(=O)[nH]c(N)nc21 [2′-O-(2-Methoxyethyl)guanosine] (10 µM)
inactive: [1] 0 | [2] 0 | [3] 0 | [4] 0 | [5] 0 | [6] 0 | [7] 0 | [8] 0 | [9] 0 | [10] 0 | [11] 0 | [12] 0 | [13] 0 | [14] 0 | [15] 0 | [16] 0 | [17] 0 | [18] 0 | [19] 0 | [20] 0

CC(C)=CCC[C@](C)(O[C@@H]1O[C@H](CO)[C@@H](O)[C@H](O)[C@H]1O)[C@H]1CC[C@]2(C)[C@@H]1[C@H](O)C[C@@H]1[C@@]3(C)CC[C@H](O)C(C)(C)[C@@H]3[C@@H](O[C@@H]3O[C@H](CO)[C@@H](O)[C@H](O)[C@H]3O[C@@H]3O[C@@H](C)[C@H](O)[C@@H](O)[C@H]3O)C[C@]12C [Ginsenoside Re] (10 µM)
inactive: [1] 0 | [2] 0 | [3] 0 | [4] 0 | [5] 0 | [6] 0 | [7] 0 | [8] 0 | [9] 0 | [10] 0 | [11] 0 | [12] 0 | [13] 0 | [14] 0 | [15] 0 | [16] 0 | [17] 0 | [18] 0 | [19] 0 | [20] 0

COC1(c2sc3c(N4CCOCC4)nc(-c4cnc(N)nc4)nc3c2C)COC1 (2.5 µM)
inactive: [1] 0 | [2] 0 | [3] 0 | [4] 0 | [5] 0 | [6] 0 | [7] 0 | [8] 0 | [9] 0 | [10] 0 | [11] 0 | [12] 0 | [13] 0 | [14] 0 | [15] 0 | [16] 0 | [17] 0 | [18] 0 | [19] 0 | [20] 0

C=C(C)C(=O)Nc1cccc(-c2ncnc3[nH]cc(C(=O)OCC)c23)c1 (10 µM)
inactive: [1] 0 | [2] 0 | [3] 0 | [4] 0 | [5] 0 | [6] 0 | [7] 0 | [8] 0 | [9] 0 | [10] 0 | [11] 0 | [12] 0 | [13] 0 | [14] 0 | [15] 0 | [16] 0 | [17] 0 | [18] 0 | [19] 0 | [20] 0

COc1ccc([C@@H]2CC(=O)c3c(O)cc(O)cc3O2)cc1O [Hesperetin] (10 µM)
inactive: [1] 0 | [2] 0 | [3] 0 | [4] 0 | [5] 0 | [6] 0 | [7] 0 | [8] 0 | [9] 0 | [10] 0 | [11] 0 | [12] 0 | [13] 0 | [14] 0 | [15] 0 | [16] 0 | [17] 0 | [18] 0 | [19] 0 | [20] 0

COCCOc1cnc(Sc2cc(C)c(-c3csc(NC(=O)c4ccncc4)n3)c(C)c2)cn1 [T-1101 (tosylate)] (2.5 µM)
inactive: [1] 0 | [2] 0 | [3] 0 | [4] 0 | [5] 0 | [6] 0 | [7] 0 | [8] 0 | [9] 0 | [10] 0 | [11] 0 | [12] 0 | [13] 0 | [14] 0 | [15] 0 | [16] 0 | [17] 0 | [18] 0 | [19] 0 | [20] 0
